Earlier results, collected in patent publication US20130089629A1, “KIT FOR THE TREATMENT OF ONYCHOMYCOSIS BY NITRIC OXIDE” (TOPICAL PHARMA AB, priority 2010, published 2013).
Some results were stated once for a whole list of compounds, not compound by compound.

Test system: infected toenails
Conditions: systemic (oral) treatment, 10-18 months; cited from earlier work

COC1=CC(=O)C[C@@H](C)[C@]12Oc1c(Cl)c(OC)cc(OC)c1C2=O [Griseofulvin]
relapse rates: 50-85%
